The values below come from patent US20130123347, “FRACTALKINE BINDING POLYNUCLEOTIDES AND METHODS OF USE” (published 2013).

The target in the data set is T1, fractalkine expressed on MCA-38.FKN cells (UniProt P78423).
T1 sequence (looked up, limits assumed): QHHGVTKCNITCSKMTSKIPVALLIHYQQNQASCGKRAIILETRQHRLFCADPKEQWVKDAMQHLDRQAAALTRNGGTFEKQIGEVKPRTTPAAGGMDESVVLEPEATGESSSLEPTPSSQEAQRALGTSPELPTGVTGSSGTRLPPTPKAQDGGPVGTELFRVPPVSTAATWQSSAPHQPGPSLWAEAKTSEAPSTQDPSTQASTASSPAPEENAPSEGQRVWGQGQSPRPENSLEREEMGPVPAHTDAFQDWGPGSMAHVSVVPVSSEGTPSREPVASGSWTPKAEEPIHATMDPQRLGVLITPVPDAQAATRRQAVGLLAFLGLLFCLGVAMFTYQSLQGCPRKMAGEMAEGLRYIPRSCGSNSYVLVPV
In words: flow cytometry. The following applies: protein on the cell surface, protein details: transfected murine colonic epithelial MCA-38 cells, single-stranded DNA, variant of FKN-S2. A general note: A flow cytometer gives signals particle by particle.

Results from cells or extracts need not show a direct contact. The comparison behind a weaker result is the experiment's own reference, which may not be listed here. Tags and fusion partners may be left off the protein sequences shown.

As for “GGGGTGGGTGGGGGGCACGTGTGGGGGCGGCCAGGGTGCT [3' C12 FKN-S2 Amphiphile]”, the binding result (3' C12 spacer + C16 dialkyl tail, liposomes on MCA-38.FKN cells, 37 C, less than 3' 10T) is on record as “binds more weakly”.

Regarding “GGGGTGGGTGGGGGGCACGTGTGGGGGCGGCCAGGGTGCT [3' No Spacer FKN-S2 Amphiphile]”, the binding result (3' C6 amino-linked C16 dialkyl tail, liposomes on MCA-38.FKN cells, 37 C, less than 3' 10T) is recorded as “binds more weakly”.

Regarding “GGGGTGGGTGGGGGGCACGTGTGGGGGCGGCCAGGGTGCT [3' PEG8 FKN-S2 Amphiphile]”, where the note is “3' PEG8 spacer + C16 dialkyl tail, liposomes on MCA-38.FKN cells, 37 C, less than 3' 10T”, the binding result is “binds more weakly”.

“GGGGTGGGTGGGGGGCACGTGTGGGGGCGGCCAGGGTGCTTTTTTTTTTT [3' 10T FKN-S2 Amphiphile]”: for the setting “3' C16 dialkyl tail, calcein liposomes, MCA-38.FKN cells, DPBS with Ca/Mg, 37 C 1 h, best of four spacers, confocal shows binding and internalization”, the binding result is given as “binds”.
